Here are results for four molecules from PMC4997571.

By UniProt entry, the sequences of proteins in these tests, tags left out.
UniProt P15682: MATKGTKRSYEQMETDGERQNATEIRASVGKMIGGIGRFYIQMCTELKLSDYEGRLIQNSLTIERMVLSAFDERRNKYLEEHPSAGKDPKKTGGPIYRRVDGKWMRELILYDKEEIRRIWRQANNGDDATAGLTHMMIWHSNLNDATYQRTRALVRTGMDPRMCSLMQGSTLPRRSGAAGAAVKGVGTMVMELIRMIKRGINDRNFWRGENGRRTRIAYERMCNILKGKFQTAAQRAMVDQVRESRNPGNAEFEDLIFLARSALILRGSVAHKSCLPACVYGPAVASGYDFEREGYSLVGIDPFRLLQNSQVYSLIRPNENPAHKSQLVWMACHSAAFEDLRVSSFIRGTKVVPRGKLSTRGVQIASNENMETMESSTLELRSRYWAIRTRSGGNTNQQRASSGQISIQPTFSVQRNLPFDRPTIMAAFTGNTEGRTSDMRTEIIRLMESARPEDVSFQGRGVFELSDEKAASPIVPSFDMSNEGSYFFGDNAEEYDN
UniProt O14980: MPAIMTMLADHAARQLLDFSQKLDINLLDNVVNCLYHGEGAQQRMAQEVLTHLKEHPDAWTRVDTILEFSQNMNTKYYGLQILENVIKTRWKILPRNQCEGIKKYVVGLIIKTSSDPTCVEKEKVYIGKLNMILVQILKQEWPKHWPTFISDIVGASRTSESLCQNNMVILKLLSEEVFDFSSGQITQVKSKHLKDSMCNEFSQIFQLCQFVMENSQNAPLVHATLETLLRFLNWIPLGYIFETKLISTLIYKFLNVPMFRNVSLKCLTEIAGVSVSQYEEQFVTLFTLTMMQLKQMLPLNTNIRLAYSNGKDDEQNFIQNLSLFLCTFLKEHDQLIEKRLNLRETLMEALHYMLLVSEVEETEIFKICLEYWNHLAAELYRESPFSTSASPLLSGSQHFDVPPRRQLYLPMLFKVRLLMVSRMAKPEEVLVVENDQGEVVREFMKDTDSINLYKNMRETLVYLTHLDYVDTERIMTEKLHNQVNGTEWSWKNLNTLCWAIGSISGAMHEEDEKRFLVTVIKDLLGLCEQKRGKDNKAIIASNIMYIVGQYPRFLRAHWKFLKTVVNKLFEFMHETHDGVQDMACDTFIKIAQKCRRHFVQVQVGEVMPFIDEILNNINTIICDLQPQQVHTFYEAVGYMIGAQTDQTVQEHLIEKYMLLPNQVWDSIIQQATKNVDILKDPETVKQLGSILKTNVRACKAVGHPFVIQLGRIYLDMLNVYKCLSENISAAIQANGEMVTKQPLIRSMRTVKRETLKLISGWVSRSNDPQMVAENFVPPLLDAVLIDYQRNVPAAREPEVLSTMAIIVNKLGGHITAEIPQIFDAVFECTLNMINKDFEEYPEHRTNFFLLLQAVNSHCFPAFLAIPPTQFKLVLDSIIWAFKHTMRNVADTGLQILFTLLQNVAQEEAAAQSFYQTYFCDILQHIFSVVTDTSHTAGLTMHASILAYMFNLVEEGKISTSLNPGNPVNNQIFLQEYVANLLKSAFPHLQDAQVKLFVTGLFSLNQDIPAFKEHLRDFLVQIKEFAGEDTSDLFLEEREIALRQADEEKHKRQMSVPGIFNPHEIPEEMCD

Results are given in words; binding and its absence hold for the method and conditions named. For some assays here: In cells and extracts the contact can be indirect. Some binding calls cover weakened binding; strength is not graded here. For some assays here: Tags and fused reporters may be left off the sequences shown.

In experiment [1] the target is Influenza A/WSN/33 (H1N1) nucleoprotein with FLAG tag (NP-FLAG) (Influenza A/WSN/33 (H1N1)) (UniProt P15682). In words: pull-down; only the target purified.
The target of experiment [2] is T1, HA-NXT1 (human (cDNA of HeLa cells)) (UniProt Q9UKK6).
T1 sequence: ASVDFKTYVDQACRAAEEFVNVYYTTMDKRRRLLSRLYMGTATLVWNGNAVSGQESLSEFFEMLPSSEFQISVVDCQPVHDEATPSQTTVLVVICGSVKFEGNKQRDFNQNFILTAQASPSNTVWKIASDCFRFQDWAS
In words: pull-down; both purified.

Experiment [3] deals with CRM1-HA (human (cDNA of HeLa cells)) (UniProt O14980). The experiment can be described thus: pull-down; both purified.
In experiment [4] the target is Influenza A/WSN/33 (H1N1) nucleoprotein with FLAG tag (NP-FLAG) (Influenza A/WSN/33 (H1N1)) (UniProt P15682). The experiment can be described thus: co-IP.

For “Chromosome region maintenance 1 (CRM1), endogenous (from UniProt O14980 1-1071)”, the binding result in experiment [1] is given as “binds”.

“Influenza A/WSN/33 (H1N1) nucleoprotein with FLAG tag (NP-FLAG) (from UniProt P15682 1-498)”: the binding entry in experiment [2] and in experiment [3] was “binds” in each case.

B1: Nuclear transport factor 2 (NTF2)-like export protein 1 (NXT1), endogenous (protein, UniProt Q9UKK6 1-140)
chain: MASVDFKTYVDQACRAAEEFVNVYYTTMDKRRRLLSRLYMGTATLVWNGNAVSGQESLSEFFEMLPSSEFQISVVDCQPVHDEATPSQTTVLVVICGSVKFEGNKQRDFNQNFILTAQASPSNTVWKIASDCFRFQDWAS
Turning to B1, the binding entry in experiment [1] was “binds”.

B2: HA-NXT1 (protein, UniProt Q9UKK6 2-140)
chain: ASVDFKTYVDQACRAAEEFVNVYYTTMDKRRRLLSRLYMGTATLVWNGNAVSGQESLSEFFEMLPSSEFQISVVDCQPVHDEATPSQTTVLVVICGSVKFEGNKQRDFNQNFILTAQASPSNTVWKIASDCFRFQDWAS
As for B2, in experiment [4], the binding entry is on record as “binds”.
